Data from patent US6414138B1, “Process for producing mixtures rich in 1,6-GPS or 1,1-GPM” (Sudzucker Aktiengesellschaft, priority 1997, dated 2002).
Some results were stated once for a whole list of compounds, not compound by compound. At least one compound was matched to its structure with a doubt left.

Assay: Solubility of 1,1-GPM and 1,6-GPS in water / aqueous suspension
Assay type: physicochemical
Conditions: components distributed homogeneously
Procedure: Since the solubility equilibrium is temperature-dependent, the concentration ratio of the two components can advantageously be preset. After the solubility equilibrium is adjusted, the 1,1-GPM and 1,6-GPS concentration in the products can be controlled by setting the rate for the temperature change.
In another preferred embodiment of the invention, a suspension which is formed by the addition of, for example, crystalline hydrogenated isomaltulose in water, is heated to, for example, 85° C. to completely dissolve the solute, whereafter the cooling step to crystallize the solution is combined with a seeding step. The seeding step, however, is not essential. Advantageously, powdered hydrogenated isomaltulose in crystalline form or in the form of a suspension can be used. Most advantageously, the suspension is formed in water or in an organic solvent, such as isopropanol, and a food-compatible dispersing agent acting as a solvent can be added, if necessary. […]
The two constituents of hydrogenated isomaltulose, i.e. 1,1-GPM and 1,6-GPS, have a different solubility in aqueous solutions (FIG. 4). […] The 1,1-GPM component, which crystallizes more readily, is concentrated in the solid fraction of the suspension, whereas the 1,6-GPS component, which crystallizes less readily, goes preferentially into solution. […]

SMILES | time until the respective solubility equilibrium is reached
OC[C@H](O)[C@@H](O)[C@H](O)[C@H](O)CO[C@H]1O[C@H](CO)[C@@H](O)[C@H](O)[C@H]1O [1,6-GPS, 6-0-α-D-Glucopyranosyl-D-sorbite] | ≤ 0.5 h
OC[C@@H](O)[C@@H](O)[C@H](O)[C@H](O)CO[C@H]1O[C@H](CO)[C@@H](O)[C@H](O)[C@H]1O [1,1-GPM, 1-0-α-D-Glucopyranosyl-D-mannite] | ≤ 0.5 h
